Results as given in the supplement of paper PMC10849652.
Some of the results follow.

Sequences of proteins named here, by UniProt entry; tags and fusion partners are left off. A change or cut given only in a name is not applied to a line headed by its entry.
UniProt Q9HAP2: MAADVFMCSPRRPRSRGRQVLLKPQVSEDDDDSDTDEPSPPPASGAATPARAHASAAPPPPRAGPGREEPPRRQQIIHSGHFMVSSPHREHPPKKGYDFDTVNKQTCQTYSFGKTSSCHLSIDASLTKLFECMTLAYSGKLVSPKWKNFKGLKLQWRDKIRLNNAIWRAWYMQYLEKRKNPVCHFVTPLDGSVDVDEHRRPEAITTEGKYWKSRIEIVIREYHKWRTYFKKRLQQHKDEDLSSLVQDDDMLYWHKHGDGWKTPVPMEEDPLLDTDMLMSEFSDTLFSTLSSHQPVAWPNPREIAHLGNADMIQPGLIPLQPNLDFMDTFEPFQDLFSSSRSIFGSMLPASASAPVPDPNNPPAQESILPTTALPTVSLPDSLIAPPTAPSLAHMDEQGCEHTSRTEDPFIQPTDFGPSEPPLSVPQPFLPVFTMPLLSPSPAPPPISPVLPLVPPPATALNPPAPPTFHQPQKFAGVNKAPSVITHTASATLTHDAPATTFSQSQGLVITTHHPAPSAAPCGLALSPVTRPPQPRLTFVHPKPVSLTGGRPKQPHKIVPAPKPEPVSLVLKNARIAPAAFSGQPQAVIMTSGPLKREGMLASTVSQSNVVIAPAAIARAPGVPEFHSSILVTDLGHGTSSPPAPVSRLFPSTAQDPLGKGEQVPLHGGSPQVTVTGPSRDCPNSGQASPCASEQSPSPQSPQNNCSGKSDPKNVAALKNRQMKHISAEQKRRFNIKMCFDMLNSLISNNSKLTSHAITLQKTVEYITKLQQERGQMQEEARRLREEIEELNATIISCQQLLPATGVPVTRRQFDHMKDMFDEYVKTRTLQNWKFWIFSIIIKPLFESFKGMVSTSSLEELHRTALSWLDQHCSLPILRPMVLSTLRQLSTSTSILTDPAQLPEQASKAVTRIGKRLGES
UniProt Q8N4V1: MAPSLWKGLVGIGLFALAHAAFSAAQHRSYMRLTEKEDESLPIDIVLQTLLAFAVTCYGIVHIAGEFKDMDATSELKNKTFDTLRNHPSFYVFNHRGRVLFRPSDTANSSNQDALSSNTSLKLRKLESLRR
UniProt Q96T76: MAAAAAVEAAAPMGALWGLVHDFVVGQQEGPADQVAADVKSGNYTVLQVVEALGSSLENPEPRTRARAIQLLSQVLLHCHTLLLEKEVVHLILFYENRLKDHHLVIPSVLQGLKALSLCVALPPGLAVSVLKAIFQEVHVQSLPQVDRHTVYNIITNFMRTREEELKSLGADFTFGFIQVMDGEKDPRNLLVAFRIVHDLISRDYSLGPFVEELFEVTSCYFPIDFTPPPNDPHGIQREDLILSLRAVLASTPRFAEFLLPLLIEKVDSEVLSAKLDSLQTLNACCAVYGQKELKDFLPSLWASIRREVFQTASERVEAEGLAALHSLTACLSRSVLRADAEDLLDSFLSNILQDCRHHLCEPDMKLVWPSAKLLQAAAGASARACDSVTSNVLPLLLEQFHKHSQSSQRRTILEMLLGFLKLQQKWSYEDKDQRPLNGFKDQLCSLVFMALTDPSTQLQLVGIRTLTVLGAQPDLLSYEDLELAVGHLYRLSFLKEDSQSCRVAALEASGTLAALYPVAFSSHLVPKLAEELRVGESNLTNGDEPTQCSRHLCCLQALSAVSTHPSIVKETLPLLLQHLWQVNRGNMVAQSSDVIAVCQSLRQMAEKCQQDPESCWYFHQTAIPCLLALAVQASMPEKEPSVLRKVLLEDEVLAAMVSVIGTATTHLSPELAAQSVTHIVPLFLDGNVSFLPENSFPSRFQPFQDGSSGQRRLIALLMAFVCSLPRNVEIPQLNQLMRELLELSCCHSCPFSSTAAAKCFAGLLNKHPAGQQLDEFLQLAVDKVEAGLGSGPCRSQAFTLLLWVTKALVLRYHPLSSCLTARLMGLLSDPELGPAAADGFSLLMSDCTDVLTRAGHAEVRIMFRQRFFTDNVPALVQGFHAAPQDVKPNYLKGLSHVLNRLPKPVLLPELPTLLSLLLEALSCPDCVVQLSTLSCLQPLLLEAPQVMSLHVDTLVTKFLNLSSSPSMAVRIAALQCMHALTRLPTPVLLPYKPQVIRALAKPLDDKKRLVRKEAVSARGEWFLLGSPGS
UniProt O96033: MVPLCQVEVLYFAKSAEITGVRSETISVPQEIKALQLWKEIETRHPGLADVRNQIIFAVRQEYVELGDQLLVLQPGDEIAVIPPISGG
UniProt Q9H081: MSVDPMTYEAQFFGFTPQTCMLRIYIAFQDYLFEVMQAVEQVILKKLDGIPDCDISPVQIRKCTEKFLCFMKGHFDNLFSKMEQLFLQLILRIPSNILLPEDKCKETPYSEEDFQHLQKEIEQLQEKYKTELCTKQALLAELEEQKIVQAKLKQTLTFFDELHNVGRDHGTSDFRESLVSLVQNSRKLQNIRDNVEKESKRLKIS
UniProt Q96BX8: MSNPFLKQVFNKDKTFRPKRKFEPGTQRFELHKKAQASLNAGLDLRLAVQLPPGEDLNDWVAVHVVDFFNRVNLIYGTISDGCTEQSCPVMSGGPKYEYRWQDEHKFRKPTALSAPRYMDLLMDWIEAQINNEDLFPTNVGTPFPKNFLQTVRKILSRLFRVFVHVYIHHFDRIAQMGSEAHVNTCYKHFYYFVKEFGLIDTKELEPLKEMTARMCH
UniProt Q9BWT6: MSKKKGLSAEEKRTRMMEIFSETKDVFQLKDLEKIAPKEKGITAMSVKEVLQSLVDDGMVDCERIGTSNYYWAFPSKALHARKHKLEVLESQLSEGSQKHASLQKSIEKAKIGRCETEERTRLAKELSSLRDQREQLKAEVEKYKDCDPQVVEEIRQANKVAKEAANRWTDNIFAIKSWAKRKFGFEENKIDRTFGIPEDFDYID
UniProt Q9Y605: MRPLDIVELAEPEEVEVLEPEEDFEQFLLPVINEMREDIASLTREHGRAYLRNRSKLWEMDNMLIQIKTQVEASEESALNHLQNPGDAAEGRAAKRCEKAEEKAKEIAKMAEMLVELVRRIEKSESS
UniProt Q5XKP0: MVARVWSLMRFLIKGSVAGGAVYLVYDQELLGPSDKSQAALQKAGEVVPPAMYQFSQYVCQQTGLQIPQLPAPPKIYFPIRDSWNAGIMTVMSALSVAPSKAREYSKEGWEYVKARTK
UniProt Q9Y5U8: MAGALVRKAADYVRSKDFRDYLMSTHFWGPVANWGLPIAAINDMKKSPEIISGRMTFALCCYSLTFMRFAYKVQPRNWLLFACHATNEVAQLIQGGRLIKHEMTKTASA
UniProt Q9NQG6: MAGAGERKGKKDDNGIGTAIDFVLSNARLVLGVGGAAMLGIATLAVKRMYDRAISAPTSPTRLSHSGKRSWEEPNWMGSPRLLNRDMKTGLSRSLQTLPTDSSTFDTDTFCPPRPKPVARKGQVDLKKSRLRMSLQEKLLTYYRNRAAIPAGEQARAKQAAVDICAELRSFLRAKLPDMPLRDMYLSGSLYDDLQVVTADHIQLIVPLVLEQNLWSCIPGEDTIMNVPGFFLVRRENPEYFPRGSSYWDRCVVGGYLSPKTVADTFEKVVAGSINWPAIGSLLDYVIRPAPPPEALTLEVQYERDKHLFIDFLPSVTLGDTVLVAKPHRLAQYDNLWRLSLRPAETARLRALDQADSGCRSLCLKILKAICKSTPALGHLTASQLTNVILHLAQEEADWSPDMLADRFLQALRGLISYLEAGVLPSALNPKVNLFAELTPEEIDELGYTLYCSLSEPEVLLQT
UniProt Q7L1V2: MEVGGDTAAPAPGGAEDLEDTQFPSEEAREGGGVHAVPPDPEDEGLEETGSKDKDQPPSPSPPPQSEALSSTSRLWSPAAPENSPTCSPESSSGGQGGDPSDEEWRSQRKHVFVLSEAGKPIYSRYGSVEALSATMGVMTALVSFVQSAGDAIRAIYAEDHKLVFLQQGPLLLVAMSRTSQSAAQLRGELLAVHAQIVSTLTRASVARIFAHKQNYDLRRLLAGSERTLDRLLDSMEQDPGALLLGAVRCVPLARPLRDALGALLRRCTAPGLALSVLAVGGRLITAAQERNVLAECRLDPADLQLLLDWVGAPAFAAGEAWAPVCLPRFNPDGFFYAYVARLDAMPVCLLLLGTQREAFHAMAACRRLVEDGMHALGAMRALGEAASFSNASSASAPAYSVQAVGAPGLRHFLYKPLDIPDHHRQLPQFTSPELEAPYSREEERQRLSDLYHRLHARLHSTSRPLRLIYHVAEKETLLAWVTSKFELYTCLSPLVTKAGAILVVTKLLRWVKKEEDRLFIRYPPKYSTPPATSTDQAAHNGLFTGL
UniProt P25325: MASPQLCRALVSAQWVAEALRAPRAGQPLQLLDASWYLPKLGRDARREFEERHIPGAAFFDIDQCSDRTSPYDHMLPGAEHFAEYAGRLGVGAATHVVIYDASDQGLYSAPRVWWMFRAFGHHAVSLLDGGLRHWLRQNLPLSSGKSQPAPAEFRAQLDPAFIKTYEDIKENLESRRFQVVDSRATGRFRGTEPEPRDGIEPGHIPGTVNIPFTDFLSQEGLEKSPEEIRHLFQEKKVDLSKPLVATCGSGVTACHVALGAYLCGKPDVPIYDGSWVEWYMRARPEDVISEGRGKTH
UniProt Q8IYU8: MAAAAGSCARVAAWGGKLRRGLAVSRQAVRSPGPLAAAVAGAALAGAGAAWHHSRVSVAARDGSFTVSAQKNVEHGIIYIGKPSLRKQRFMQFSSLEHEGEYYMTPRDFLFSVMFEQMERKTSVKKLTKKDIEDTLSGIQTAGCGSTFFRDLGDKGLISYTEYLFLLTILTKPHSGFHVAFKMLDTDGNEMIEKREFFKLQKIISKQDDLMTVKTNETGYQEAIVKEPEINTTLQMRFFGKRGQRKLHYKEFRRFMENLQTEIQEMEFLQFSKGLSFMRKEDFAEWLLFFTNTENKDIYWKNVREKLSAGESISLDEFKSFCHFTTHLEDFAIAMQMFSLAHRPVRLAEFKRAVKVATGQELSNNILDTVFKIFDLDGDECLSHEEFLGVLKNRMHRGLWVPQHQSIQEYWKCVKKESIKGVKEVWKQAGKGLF
UniProt Q9HCE1: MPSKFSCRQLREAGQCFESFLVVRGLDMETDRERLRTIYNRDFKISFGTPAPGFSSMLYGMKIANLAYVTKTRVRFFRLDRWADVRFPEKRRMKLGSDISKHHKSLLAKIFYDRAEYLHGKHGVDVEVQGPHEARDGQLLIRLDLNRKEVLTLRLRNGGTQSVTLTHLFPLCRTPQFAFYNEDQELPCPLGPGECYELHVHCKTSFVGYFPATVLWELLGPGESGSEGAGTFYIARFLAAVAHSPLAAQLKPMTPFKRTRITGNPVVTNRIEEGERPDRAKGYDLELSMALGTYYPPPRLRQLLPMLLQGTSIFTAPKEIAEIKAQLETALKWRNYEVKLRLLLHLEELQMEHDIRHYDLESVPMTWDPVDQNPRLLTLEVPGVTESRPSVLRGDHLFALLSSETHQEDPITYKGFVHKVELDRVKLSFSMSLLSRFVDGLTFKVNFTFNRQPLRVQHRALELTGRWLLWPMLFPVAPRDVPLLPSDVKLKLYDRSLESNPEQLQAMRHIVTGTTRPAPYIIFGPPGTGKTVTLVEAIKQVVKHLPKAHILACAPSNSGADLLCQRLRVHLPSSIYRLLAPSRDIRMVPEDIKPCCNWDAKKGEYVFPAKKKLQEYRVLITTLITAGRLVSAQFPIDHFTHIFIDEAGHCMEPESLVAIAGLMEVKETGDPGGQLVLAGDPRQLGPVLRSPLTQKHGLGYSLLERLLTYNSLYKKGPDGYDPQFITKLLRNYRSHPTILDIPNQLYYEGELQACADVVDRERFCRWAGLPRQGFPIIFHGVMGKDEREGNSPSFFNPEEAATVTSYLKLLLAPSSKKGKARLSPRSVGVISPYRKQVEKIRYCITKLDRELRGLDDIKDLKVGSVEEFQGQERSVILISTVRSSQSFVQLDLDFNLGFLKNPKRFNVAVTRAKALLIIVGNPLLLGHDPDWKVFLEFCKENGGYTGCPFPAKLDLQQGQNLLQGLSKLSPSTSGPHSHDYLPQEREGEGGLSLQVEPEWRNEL
UniProt O00566: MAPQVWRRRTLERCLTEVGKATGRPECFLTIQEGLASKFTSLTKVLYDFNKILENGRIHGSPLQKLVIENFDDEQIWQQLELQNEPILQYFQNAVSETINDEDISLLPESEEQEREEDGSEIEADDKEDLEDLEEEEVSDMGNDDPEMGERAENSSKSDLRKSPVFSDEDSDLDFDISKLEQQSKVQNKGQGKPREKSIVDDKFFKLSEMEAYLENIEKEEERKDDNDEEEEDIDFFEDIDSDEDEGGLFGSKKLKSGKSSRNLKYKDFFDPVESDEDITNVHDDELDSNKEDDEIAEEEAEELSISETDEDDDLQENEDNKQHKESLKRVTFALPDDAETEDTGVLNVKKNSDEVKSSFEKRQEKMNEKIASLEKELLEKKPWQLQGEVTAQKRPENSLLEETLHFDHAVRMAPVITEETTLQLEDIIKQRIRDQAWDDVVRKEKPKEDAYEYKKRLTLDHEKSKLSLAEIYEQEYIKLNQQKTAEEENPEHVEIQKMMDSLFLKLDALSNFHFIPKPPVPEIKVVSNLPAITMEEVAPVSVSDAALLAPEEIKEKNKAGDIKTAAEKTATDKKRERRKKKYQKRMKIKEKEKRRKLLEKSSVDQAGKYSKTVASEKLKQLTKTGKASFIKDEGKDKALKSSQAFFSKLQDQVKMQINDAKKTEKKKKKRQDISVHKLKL

Each target was assayed with CN1CCN(c2nc(C3=C(c4c[nH]c5ccccc45)C(=O)NC3=O)c3ccccc3n2)CC1 [sotrastaurin] (assay: log2 fold change, soluble protein after heating vs DMSO (PISA); higher = thermal stabilisation; K562 cells, 10 uM, 30 min; active = over 0.2 and 3.5 SD of the protein, either way, in both replicates (recomputed)).
In short: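 K562 cells at 2×10^6 cells/mL were exposed to 10 μM compound for 30 min, then aliquots were heated for 3 min across 48°C-58°C, pooled, and extracted in PBS containing 0.5% NP-40 at 4°C. The supernatant after 21,000xg for 90 min was taken as soluble protein and measured by TMTpro 16plex LC-MS/MS with channel sums equalised. Thermal stability is reported relative to control samples, with values from duplicates. Fold changes are given on a log2 scale.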
In the case of MRPL47 (UniProt Q9HD33), the log2 fold change is reported as inactive: -0.024.
In the case of MLXIP (UniProt Q9HAP2), the log2 fold change is reported as inactive: -0.122.
For MRPL4 (UniProt Q9BYD3), the log2 fold change was inactive: -0.158.
For MIF (UniProt P14174), the log2 fold change was inactive: -0.005.
For MMGT1 (UniProt Q8N4V1), the log2 fold change was inactive: 0.13.
MMS19 isoform 8 (UniProt Q96T76) was tested, and the log2 fold change was inactive: -0.156.
MOCS2 (UniProt O96033) was tested, and the log2 fold change was inactive: -0.006.
In the case of MNAT1 (UniProt P51948), the log2 fold change is reported as inactive: 0.
MRPL53 (UniProt Q96EL3) was tested, and the log2 fold change was inactive: -0.012.
MIS12 (UniProt Q9H081) was tested, and the log2 fold change was inactive: -0.014.
For MRPL37 (UniProt Q9BZE1), the log2 fold change was inactive: -0.127.
In the case of MKRN2 (UniProt Q9H000), the log2 fold change is reported as inactive: -0.024.
With MITD1 (UniProt Q8WV92) the log2 fold change was inactive: -0.002.
For MIEN1 (UniProt Q9BRT3), the log2 fold change was inactive: -0.067.
In the case of MKRN3 (UniProt Q13064), the log2 fold change is reported as inactive: 0.035.
MICU1 isoform 3 (UniProt Q9BPX6) was tested, and the log2 fold change was inactive: 0.
With MOB3A (UniProt Q96BX8) the log2 fold change was inactive: -0.238.
For MLST8 (UniProt Q9BVC4), the log2 fold change was inactive: -0.003.
In the case of MND1 (UniProt Q9BWT6), the log2 fold change is reported as inactive: 0.036.
For MRFAP1 (UniProt Q9Y605), the log2 fold change was inactive: 0.102.
With MRPL34 (UniProt Q9BQ48) the log2 fold change was inactive: 0.
With MICOS13 (UniProt Q5XKP0) the log2 fold change was inactive: 0.01.
In the case of MPC1 (UniProt Q9Y5U8), the log2 fold change is reported as inactive: -0.03.
In the case of MRPL46 (UniProt Q9H2W6), the log2 fold change is reported as inactive: -0.073.
For MORC3 (UniProt Q14149), the log2 fold change was inactive: -0.141.
In the case of MIEF1 (UniProt Q9NQG6), the log2 fold change is reported as inactive: -0.042.
MON1B (UniProt Q7L1V2) was tested, and the log2 fold change was inactive: -0.028.
With MPP1 (UniProt Q00013) the log2 fold change was inactive: -0.085.
With MPST isoform 2 (UniProt P25325) the log2 fold change was inactive: -0.071.
For MICU2 (UniProt Q8IYU8), the log2 fold change was inactive: -0.001.
With MOV10 (UniProt Q9HCE1) the log2 fold change was inactive: 0.024.
For MPRIP isoform 2 (UniProt Q6WCQ1), the log2 fold change was inactive: -0.014.
MIEF1 (UniProt L0R8F8) was tested, and the log2 fold change was inactive: -0.008.
With MRPL50 (UniProt Q8N5N7) the log2 fold change was inactive: -0.048.
With MINK1 (UniProt Q8N4C8) the log2 fold change was inactive: -0.009.
With MRPL28 (UniProt Q13084) the log2 fold change was inactive: -0.08.
MMAA (UniProt Q8IVH4) was tested, and the log2 fold change was inactive: 0.013.
For MRPL42 (UniProt Q9Y6G3), the log2 fold change was inactive: -0.052.
With MPHOSPH10 (UniProt O00566) the log2 fold change was inactive: -0.061.
